Source: patent US20230357414A1 (SYNTHEKINE, published 2023)
These are yes or no findings as the source states them, for the method shown. Some results given as binding are weak or reduced against the parent protein; the word gives no strength. Each block holds one binder with its values, some of them ahead of it.

Molecular target: T1, extracellular domain of human IL12Rb2 (amino acids 24-622 of hIL12Rb2, UniProt Q99665) (human, UniProt Q99665 24-622)
T1 construct: also called hIL12Rb2 ECD; hIL12Rb2-ECD
T1 sequence: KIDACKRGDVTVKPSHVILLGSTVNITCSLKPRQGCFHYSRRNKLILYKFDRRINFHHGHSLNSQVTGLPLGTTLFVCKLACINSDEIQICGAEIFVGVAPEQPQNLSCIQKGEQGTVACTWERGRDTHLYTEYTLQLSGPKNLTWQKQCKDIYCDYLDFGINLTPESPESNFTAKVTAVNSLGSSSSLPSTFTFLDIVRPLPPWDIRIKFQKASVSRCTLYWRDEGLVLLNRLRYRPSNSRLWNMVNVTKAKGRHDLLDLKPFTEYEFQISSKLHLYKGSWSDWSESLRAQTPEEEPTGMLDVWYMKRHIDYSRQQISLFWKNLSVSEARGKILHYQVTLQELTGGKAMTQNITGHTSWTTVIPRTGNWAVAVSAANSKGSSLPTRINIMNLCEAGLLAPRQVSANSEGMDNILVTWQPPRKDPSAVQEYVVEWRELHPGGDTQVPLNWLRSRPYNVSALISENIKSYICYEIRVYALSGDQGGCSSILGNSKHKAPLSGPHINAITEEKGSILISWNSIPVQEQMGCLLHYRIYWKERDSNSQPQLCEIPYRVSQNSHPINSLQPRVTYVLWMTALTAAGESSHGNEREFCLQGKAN
Assay: periplasmic extract ELISA on antigen-coated plate; positive if A450 at least threefold over PBS-coated control
Description: Upon completion of the biopanning of Example 3, three 96-well plates of individual phage clones were isolated in order to perform periplasmic extract ELISA (PE-ELISA) on IL12Rb2 coated plates to identify positive VHH binders that selectively bound IL12Rb2. A 96-well plate was coated with IL12Rb2 and PBS under the same conditions. Next, wells were blocked at 37° C. for 1 h. Then, 100 μl of extracted antibodies was added to each well and incubated for 1 h. Subsequently, 100 μl of anti-tag polyclonal antibody conjugated to HRP was added to each well and incubated at 37° C. for 1 h. Plates were developed with TMB substrate. The reaction was stopped by the addition of H2SO4. Absorbance at 450 nm was read on a microtiter plate reader. Antibodies with absorbance of the antigen-coated well at least threefold greater than PBS-coated control are VHHs that specifically bind to IL 12Rb2. Positive clones were sequenced, and sequences analyzed to identify unique clonotypes

- binding: binds
B1: VHH15 (VHH, not shown: large carriers)
VHH: QVQLQESGGGSVQAGGSLRLSCAASGFTISRYCMGWLRQAPGKQREGVAIIERDGRTGYADSVKGRFTISKDNAKNTLYLQMNSLKPEDTAMYYCGAIEGSCRPDLGYRGQGTQVTVSS

- binding: binds
B2: VHH18 (VHH, not shown: large carriers)
VHH: QVQLQESGGGSVQAGGSLRLSCSASGFTVDDFAMGWYRQAPGNECELVSTISSGGSTYYADSVKGRFTISQDSAKNTVYLQMNSLKPEDTAVYYCAPSSVGCPLGYWGQGTQVTVSS
